Reference: PubChem BioAssay AID540303 (National Center for Advancing Translational Sciences (NCATS), 2011)
Among all 330,000 compounds or so, about 1,000 (0.3%) were called active. The inconclusive results got no clear call from the source; some entries with a clear call stand among them for comparison. The call rests on the fitted dose curve; in most records, active means well fitted inhibition curve with a large enough effect; inconclusive means small, poorly fitted or top-dose-only effect; inactive means no such curve, though single readings can be large or run the other way; tested in mouse RAW 264.7 cells. Potencies of inconclusive entries are doubtful fits and often do not repeat.

Assay: qHTS for Inhibitors of Cell Surface uPA Generation; further: nearly all actives have a fitted effect of over 55% in size
Settings: cell surface uPA generation assay; series mostly up to 38.3 µM; activity change, negative = inhibition: at the top concentration
How it was run: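 ATP-Lite luminescence in RAW 264.7 cells after 24 h of exposure to compound, tested up to 38.3 uM final in 1:5 steps. Raised ATP reflects inhibition of uPA-dependent LF delivery to the cytoplasm.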
On the % scale 0 is the no-effect control and ±100 the full control effect; potency means the concentration at half of the fitted maximal effect.

Row | SMILES | Potency | activity change, negative = inhibition
1 | C=C(C)C(O)Cc1c(OC)ccc(C(=O)/C=C/c2ccc(O)cc2)c1O (stereo not drawn) | inconclusive: 8.91 µM [inhibitor, partial curve] | 
2 | Cc1ccc(S(=O)(=O)N2CCOCC2)cc1C(=O)OCc1nnc(-c2ccccc2)o1 |  | inactive: -4.42%
3 | CCOC(=O)Cc1csc(NS(=O)(=O)c2ccc(Cl)cc2)n1 |  | inactive: 2.46%
4 | c1ccc(CN2CCN(CCOCCOc3cccc4ccccc34)CC2)cc1 |  | inactive: 14.4%
5 | O=C(CCS(=O)(=O)c1ccccc1)Nc1nc(-c2cccs2)cs1 | inconclusive: 7.08 µM [inhibitor, partial curve, poor fit] | 
6 | O=c1oc(Nc2ccccc2F)nc2ccccc12 |  | inactive: -14.9%
7 | CC(=O)Nc1ccc(S(=O)(=O)Nc2nnc(Cc3ccc(Cl)cc3)s2)cc1 |  | inactive: 2.53%
8 | COc1cc(C(=O)CCN2CCC(c3ccccc3)C2)cc(OC)c1OC (stereo not drawn) | inconclusive: 10 µM [inhibitor, partial curve, poor fit] | 
9 | N#CCCn1cc(/C=N/NC(=O)c2ccncc2)c(-c2ccc(F)cc2)n1 |  | inactive: 9.51%
10 | Cc1ccc(NC(=O)C2COc3ccccc3O2)cc1S(=O)(=O)N1CCCCC1 (stereo not drawn) | inconclusive: 12.6 µM [inhibitor, single point] | 
11 | CCN1CCN(c2ccc(S(=O)(=O)N3CCCCC3)cc2NC(=O)/C=C/c2ccc(OC)c(OC)c2)CC1 | inconclusive: 11.2 µM [inhibitor, partial curve, poor fit] | 
12 | O=C(Nc1cccs1)Nc1ccccc1Br | inconclusive: 10 µM [inhibitor, partial curve, poor fit] | 
13 | C=C1CCN(Cc2ccccc2)S(=O)(=O)c2ccccc21 | inconclusive: 2.51 µM [inhibitor, partial curve, poor fit] | 
14 | Cc1cc2nc(CCN(C(=S)NCC3CCCO3)C3CCCC3)[nH]c2cc1C (stereo not drawn) | inconclusive: 8.91 µM [inhibitor, partial curve, poor fit] | 
15 | C#CCOCCOCCOCCNc1nc(N2CCN(C(=O)CCCCCCCCCCNC(=O)[C@H](CCCCN)n3cc(CCO)nn3)CC2)nc(N2CCN(C(=O)CCCCCCCCCCNC(=O)[C@H](CCCN=C(N)N)n3cc(C[C@@H](C)CC)nn3)CC2)n1 | inconclusive: 12.6 µM [inhibitor, single point] | 
16 | O=C(CNC(=O)c1cccc(F)c1)N/N=C/c1ccc([N+](=O)[O-])s1 | active: 10 µM | 
17 | S=C(NCc1ccc(Cl)cc1)NCc1ccccn1 | inconclusive: 12.6 µM [inhibitor, single point] | 
18 | COc1ccc(NS(=O)(=O)NC(=O)c2cn(C)c3ccccc23)cc1 | inconclusive: 1.12 µM [inhibitor, partial curve, poor fit] | 

Whole records from above:
Cc1cc2nc(CCN(C(=S)NCC3CCCO3)C3CCCC3)[nH]c2cc1C (stereo not drawn) is entered as Potency: inconclusive: 8.91 µM [inhibitor, partial curve, poor fit]
COc1cc(C(=O)CCN2CCC(c3ccccc3)C2)cc(OC)c1OC (stereo not drawn) is entered as Potency: inconclusive: 10 µM [inhibitor, partial curve, poor fit]
